Test results published in US8507235B2, “Isoprene production using the DXP and MVA pathway” (Danisco US Inc., priority 2009, dated 2013).

Test system: E. coli strain MCM597
Assay: Carbon sources affecting isoprene production during growth on glucose (Biolog PM1 and PM2A plates)
Assay type: cell-based
Settings: 0.5% glucose, 0.2% yeast extract; normalized to control only fed glucose; p<0.1

For NCCC[C@H](N)C(=O)O [L-ornithine], the “specific productivity of isoprene” value was “increasing”.
